PubChem BioAssay AID1671195 | Yale University, 2021
This is one part, drawn at random, of about 22,000 reagents tested. Over the whole deposit, about 1,510 (6.9%) were called active. 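Active includes knockdowns raising or lowering LDL uptake; positive z-scores mean more uptake, negative mean less.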 Unmarked entries are inactive. The numbers tell different reagents against one gene apart.

Purpose: 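Regulators of LDL receptor activity judged by labelled LDL uptake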 (primary screen)
Cells: human Huh7 hepatoma cells
Reagent: siRNA pool against human genes, 18 nM
Time to read-out: about 2 to 2.5 days of knockdown, then 8 h LDL uptake
Treatment: DiI-labelled LDL at 30 µg/ml for 8 h, in lipoprotein-deficient serum medium
Measured: 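Per-cell DiI-LDL intensity by automated imaging; well means scaled to the plate median and given as a robust z-score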
Scale: robust z-score: higher = more LDL uptake after knockdown
Hit rule: 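a gene counts as active if at least two replicate z-scores exceed ±2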

target gene	pool no.	robust z-score, replicate 1	robust z-score, replicate 2	robust z-score, replicate 3
ATP6V0A2	1	-0.902	-1.17	-0.479
F11R	1	-0.626	0.155	1.2
BRF1	1	0.22	0.238	0.143
OR10W1	1	-1.81	-1.76	-1.78
ZNF274	1	-0.528	-0.0734	-0.207
ITIH6	1	2.79 (active)	0.772	2.59
LOC388731 (retired record)	1	-1.2	-1.28	-1.72
SET	1	0.233	0.0282	-0.609
GNG13	1	0.623	0.93	1.68
PGC	1	1.39	0.854	0.959
XKR8	1	-0.345	0.973	-0.161
HSPB9	1	1.25	1.88	2.12
SSX7	1	-0.469	-0.191	-0.367
IQGAP2	1	2.28 (active)	2.38	2.56
LOC441792 (retired record)	1	-0.321	-0.00527	0.147
ABHD6	1	-0.492	-0.967	-0.809
BBOF1	1	-0.91	-1.14	-1.46
ZNF561-AS1	1	0.0369	0.0211	0.0777
MROH8	1	0.0867	-0.0529	-1.13
CDKN2C	1	0.19	-0.645	-0.589
GID4	1	-0.655	-1.18	-1.2
EEIG2	1	-0.338	-0.131	0.176
LOC387777 (retired record)	1	0.362	0.845	0.561
ADAMTSL1	1	-1.94 (active)	-2.08	-1.93
ADAMTSL1	2	-0.295	-0.274	-0.234
UXT	1	-0.822	-1.07	-1.95
LRRC74B	1	2.86 (active)	3.35	2.39
LRG1	1	1.62	2.56	1.2

Records listed so far with an active call, once more:
target gene	pool no.	robust z-score, replicate 1	robust z-score, replicate 2	robust z-score, replicate 3
ITIH6	1	2.79 (active)	0.772	2.59
IQGAP2	1	2.28 (active)	2.38	2.56
ADAMTSL1	1	-1.94 (active)	-2.08	-1.93
LRRC74B	1	2.86 (active)	3.35	2.39
